# Assay results published in publication PMC12615793 (Nature Communications, 2025).
# Amino acid sequences for entries named in this document (tags omitted).
# UniProt P9WGI1: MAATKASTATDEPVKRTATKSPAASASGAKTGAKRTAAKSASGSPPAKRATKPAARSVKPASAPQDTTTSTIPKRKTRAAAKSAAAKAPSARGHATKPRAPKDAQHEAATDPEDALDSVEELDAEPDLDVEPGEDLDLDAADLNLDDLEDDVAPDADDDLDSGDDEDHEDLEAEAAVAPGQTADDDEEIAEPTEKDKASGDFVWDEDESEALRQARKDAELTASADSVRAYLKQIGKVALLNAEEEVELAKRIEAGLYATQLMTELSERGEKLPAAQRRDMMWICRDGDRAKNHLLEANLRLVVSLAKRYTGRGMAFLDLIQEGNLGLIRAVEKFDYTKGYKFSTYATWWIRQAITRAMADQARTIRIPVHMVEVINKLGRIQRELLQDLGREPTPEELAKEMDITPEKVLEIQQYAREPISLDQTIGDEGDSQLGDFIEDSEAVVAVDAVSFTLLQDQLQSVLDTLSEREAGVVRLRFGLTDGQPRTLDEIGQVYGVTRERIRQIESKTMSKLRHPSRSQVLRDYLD
# UniProt P9WHJ5: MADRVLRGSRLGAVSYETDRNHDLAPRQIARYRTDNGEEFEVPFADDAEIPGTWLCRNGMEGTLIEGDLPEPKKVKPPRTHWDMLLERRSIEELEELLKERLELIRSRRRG
# These are yes or no findings as the source states them, for the method shown. Some binding calls cover weakened binding; strength is not graded here.
# Biological target: Mycobacterium tuberculosis σ^A (housekeeping group I σ factor) (Mycobacterium tuberculosis) (UniProt P9WGI1)
# Test: co-purification (Ni2+ affinity, then SEC)
substance,measurement,value
Mycobacterium tuberculosis RbpA (from UniProt P9WHJ5),binding,binds
